# Measurements published in PubChem BioAssay AID493014 (National Center for Advancing Translational Sciences (NCATS), 2011).
# This is one part of the list. The main result of the screen is listed elsewhere. These columns were measured beside it and carry no call. Most of these compounds were active or inconclusive in the main read-out, so they are no random draw. Potencies come from curve fits of mixed quality, noted in brackets.
# Assay: qHTS Assay to Find Inhibitors of Chronic Active B-Cell Receptor Signaling
# Conditions: ABC-DLBCL IkBa-CBG/CBR reporter, luminescence ratio (green luciferase fused to IkBa over red control in TMD8 lymphoma cells), 4 h
# Summary of the method: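 Concentration-response series (up to 46 uM) were applied to TMD8 dual-reporter cells for 4 h at 37C with doxycycline. Green/red ratio, after filter-overlap correction, defined %Activity; red signal alone was normalised to basal cells and zero luminescence.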
# [1] = measured here: CBR red luminescence, cell number
# [2] = measured here: IkBa-CBG green luminescence
smiles,measurement,setting,value
O=C(CCC1CCCCC1)NNC(=O)c1cnccn1,AC50,[1],"32.6 µM [rising, partial curve, poor fit]"
COc1ccc(NC(=S)NC(=NS(=O)(=O)c2ccc(Cl)cc2)c2ccccc2)cc1,AC50,[1],"32.6 µM [falling, single point]"
CCOC(=O)N1CCN(C(=O)c2ccc3c(c2)N(Cc2ccc(F)cc2)CCS3)CC1,AC50,[1],"35.5 µM [falling, single point]"
Cc1ccc2c(c1)N(Cc1cccc(Cl)c1)C(=O)c1cccnc1O2,AC50,[1],"20.6 µM [falling, single point]"
Cc1ccc(NNC(=O)CCc2ccccc2)c(C)c1,AC50,[1],"35.5 µM [rising, single point]"
O=C1c2cccc3cc([N+](=O)[O-])cc(c23)C(=O)N1/N=C/c1ccc(O)cc1O,AC50,[1],"12.6 µM [falling, partial curve, poor fit]"
O=C(c1cccc(C(F)(F)F)c1)C1CCCN(C(=O)CN2CCCC2=O)C1 (stereo not drawn),AC50,[1],"14.1 µM [falling, single point]"
Clc1ccc(Cn2nnc3ccccc32)cc1,AC50,[1],"10 µM [rising, partial curve]"
COc1c(/C=N/NC(=O)[C@H]2C[C@@H]2c2ccccc2)c(CCN(C)C(C)=O)cc2c1OCO2,AC50,[1],"35.5 µM [falling, single point]"
CN(C1=NC(=O)CS1)c1ccc(O)cc1,AC50,[1],"14.1 µM [rising, single point]"
CSc1nc(-c2ccccc2)nc(NC(=O)c2ccccc2)c1C(C)=O,AC50,[1],"8.91 µM [falling, partial curve, poor fit]"
COc1ccc2occ(C(=O)c3cccs3)c2c1,AC50,[1],"4.11 µM [rising, full curve, poor fit]"
c1ccc2c(N3CCOCC3)nc(-c3ccncc3)nc2c1,AC50,[1],"8.2 µM [falling, partial curve, poor fit]"
CS/C(Nc1cc(Cl)ccc1Cl)=C(/C#N)C(=O)c1ccco1,AC50,[1],"14.1 µM [falling, single point]"
O=C(NC(=S)Nc1ccc(Cc2ccncc2)cc1)c1ccc(F)cc1,AC50,[1],"14.1 µM [falling, single point]"
CCCCOc1ccc(CSC(=N)N)cc1[N+](=O)[O-],AC50,[1],"29.1 µM [falling, single point]"
CCCc1ccc(C(C)NC(=S)NCc2ccc(F)cc2)cc1 (stereo not drawn),AC50,[1],"15.8 µM [falling, partial curve, poor fit]"
O=[N+]([O-])c1cccc(CSC2=NCCN2S(=O)(=O)c2ccccc2)c1,AC50,[1],"35.5 µM [falling, single point]"
O=C(c1ccccc1)c1cc2cc(Cl)ccc2[nH]1,AC50,[1],"0.398 µM [rising, partial curve, poor fit]"
Cc1cccc(N2CCc3c2nc2ccc(Br)cc2c3N)c1,AC50,[1],"29.1 µM [falling, single point]"
same,AC50,[2],"29.1 µM [rising, single point]"
CCCCc1cc(=O)oc2cc(OS(C)(=O)=O)ccc12,AC50,[1],"14.6 µM [rising, partial curve]"
Cc1c(OC(C(=O)O)c2ccccc2)ccc2c3c(c(=O)oc12)CCC3 (stereo not drawn),AC50,[1],"28.2 µM [falling, single point]"
Oc1ccc(NC(=S)N=Nc2c(O)[nH]c3ccccc23)cc1,AC50,[1],"4.47 µM [falling, full curve]"
CC1CCCN(S(=O)(=O)c2ccc(C(=O)Nc3nnc(-c4ccncc4)o3)cc2)C1 (stereo not drawn),AC50,[1],"35.5 µM [falling, single point]"
O=C(O)CSc1ncnc2c1oc1ccccc12,AC50,[1],"35.5 µM [rising, single point]"
CC(=O)c1c(C)[nH]c(C(=O)Nc2nc(-c3ccccc3)c(C)s2)c1C,AC50,[1],"4.61 µM [rising, partial curve, poor fit]"
CC(/C=N/NC(=O)Cc1cccs1)=C\c1ccccc1,AC50,[1],"14.6 µM [rising, partial curve, poor fit]"
C=CCn1c(SCC(=O)N2CCCC2)nc2scc(-c3cccs3)c2c1=O,AC50,[1],"1.58 µM [falling, partial curve, poor fit]"
Cc1[nH]n(C)c(=O)c1C(=O)c1c(-c2c(Cl)cccc2Cl)noc1C,AC50,[1],"12.6 µM [falling, single point]"
NS(=O)(=O)c1cccc(NC(=O)c2cc(-c3cccs3)nc3ccccc23)c1,AC50,[1],"35.5 µM [falling, single point]"
CC(CC(=O)N1CCN(c2cccc(Cl)c2)CC1)S(=O)(=O)c1ccc2c(c1)NC(=O)CO2 (stereo not drawn),AC50,[1],"35.5 µM [falling, single point]"
Cc1cc(=O)n2[nH]c(-c3cccnc3)nc2n1,AC50,[1],"20.6 µM [falling, single point]"
COc1ccc(OCC(=O)N/N=C/c2ccc(N(C)C)cc2)cc1,AC50,[1],"7.94 µM [falling, partial curve, poor fit]"
CCCCNC(=S)N(CCN(CC)CC)Cc1cc2cc3c(cc2[nH]c1=O)OCCO3,AC50,[2],"5.01 µM [falling, partial curve, poor fit]"
CC(C)CN1C(=S)SC(C)(C)C1n1oc(=O)n(-c2ccc(Cl)cc2)c1=O (stereo not drawn),AC50,[1],"29.1 µM [falling, single point]"
NC(=S)N/N=C/c1ccc(-n2nncc2-c2ccc(Cl)cc2)cc1,AC50,[1],"14.1 µM [falling, single point]"
S=C(Nc1ccccc1)N1CCCCCCC1,AC50,[1],"0.794 µM [falling, full curve, poor fit]"
Cc1ccc(-c2ccc(/C=C(\C#N)C(N)=S)o2)c([N+](=O)[O-])c1,AC50,[1],"35.5 µM [falling, single point]"
Cc1sc(NC(=O)/C=C/C(=O)O)c(C(N)=O)c1-c1ccc(C(C)(C)C)cc1,AC50,[1],"18.4 µM [falling, single point]"
NC(=S)N/N=C\c1ccccc1OCc1ccccc1,AC50,[1],"29.1 µM [falling, single point]"
same,AC50,[2],"18.4 µM [falling, single point]"
Cn1c(=O)cc(OCCCC(=O)N2CCN(Cc3ccc4c(c3)OCO4)CC2)c2ccccc21,AC50,[1],"4.47 µM [rising, partial curve]"

# Copied from above (8 entries):
smiles,measurement,setting,value
COc1ccc2occ(C(=O)c3cccs3)c2c1,AC50,[1],"4.11 µM [rising, full curve, poor fit]"
c1ccc2c(N3CCOCC3)nc(-c3ccncc3)nc2c1,AC50,[1],"8.2 µM [falling, partial curve, poor fit]"
CS/C(Nc1cc(Cl)ccc1Cl)=C(/C#N)C(=O)c1ccco1,AC50,[1],"14.1 µM [falling, single point]"
O=C(NC(=S)Nc1ccc(Cc2ccncc2)cc1)c1ccc(F)cc1,AC50,[1],"14.1 µM [falling, single point]"
CCCCOc1ccc(CSC(=N)N)cc1[N+](=O)[O-],AC50,[1],"29.1 µM [falling, single point]"
CCCc1ccc(C(C)NC(=S)NCc2ccc(F)cc2)cc1 (stereo not drawn),AC50,[1],"15.8 µM [falling, partial curve, poor fit]"
O=[N+]([O-])c1cccc(CSC2=NCCN2S(=O)(=O)c2ccccc2)c1,AC50,[1],"35.5 µM [falling, single point]"
O=C(c1ccccc1)c1cc2cc(Cl)ccc2[nH]1,AC50,[1],"0.398 µM [rising, partial curve, poor fit]"
